The other results are listed elsewhere or left out.
Compound: C1=CC2=NC=CN=C2C=C1/C=C/3\C(=O)NC(=O)S3
Test: log2 fold change, soluble protein after heating vs DMSO (PISA); higher = thermal stabilisation; K562 lysate, 10 uM; active = over 0.2 and 3.5 SD of the protein, either way, in both replicates (recomputed)
Method in brief: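 Following dounce homogenisation of K562 pellets in PBS pH 7.4 with 1 mM MgCl2, crude extract at 1 mg/mL protein was incubated for 30 min with 10 μM compound. Aliquots were then heated for 3 min over 48°C-58°C and pooled, NP-40 was added to 0.5% at 4°C, and soluble protein was recovered as the supernatant at 21,000xg for 90 min. Channel-sum-equalised TMTpro 16plex LC-MS/MS quantified this protein. Each value, from duplicates, is a log-two fold change in thermal stability relative to solvent controls.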

Protein sequences, listed by entry. Tags and fused reporters are not part of them. Lines headed by an entry give the natural chain unless they say otherwise; changes in a name come on top.
UniProt Q5VT25: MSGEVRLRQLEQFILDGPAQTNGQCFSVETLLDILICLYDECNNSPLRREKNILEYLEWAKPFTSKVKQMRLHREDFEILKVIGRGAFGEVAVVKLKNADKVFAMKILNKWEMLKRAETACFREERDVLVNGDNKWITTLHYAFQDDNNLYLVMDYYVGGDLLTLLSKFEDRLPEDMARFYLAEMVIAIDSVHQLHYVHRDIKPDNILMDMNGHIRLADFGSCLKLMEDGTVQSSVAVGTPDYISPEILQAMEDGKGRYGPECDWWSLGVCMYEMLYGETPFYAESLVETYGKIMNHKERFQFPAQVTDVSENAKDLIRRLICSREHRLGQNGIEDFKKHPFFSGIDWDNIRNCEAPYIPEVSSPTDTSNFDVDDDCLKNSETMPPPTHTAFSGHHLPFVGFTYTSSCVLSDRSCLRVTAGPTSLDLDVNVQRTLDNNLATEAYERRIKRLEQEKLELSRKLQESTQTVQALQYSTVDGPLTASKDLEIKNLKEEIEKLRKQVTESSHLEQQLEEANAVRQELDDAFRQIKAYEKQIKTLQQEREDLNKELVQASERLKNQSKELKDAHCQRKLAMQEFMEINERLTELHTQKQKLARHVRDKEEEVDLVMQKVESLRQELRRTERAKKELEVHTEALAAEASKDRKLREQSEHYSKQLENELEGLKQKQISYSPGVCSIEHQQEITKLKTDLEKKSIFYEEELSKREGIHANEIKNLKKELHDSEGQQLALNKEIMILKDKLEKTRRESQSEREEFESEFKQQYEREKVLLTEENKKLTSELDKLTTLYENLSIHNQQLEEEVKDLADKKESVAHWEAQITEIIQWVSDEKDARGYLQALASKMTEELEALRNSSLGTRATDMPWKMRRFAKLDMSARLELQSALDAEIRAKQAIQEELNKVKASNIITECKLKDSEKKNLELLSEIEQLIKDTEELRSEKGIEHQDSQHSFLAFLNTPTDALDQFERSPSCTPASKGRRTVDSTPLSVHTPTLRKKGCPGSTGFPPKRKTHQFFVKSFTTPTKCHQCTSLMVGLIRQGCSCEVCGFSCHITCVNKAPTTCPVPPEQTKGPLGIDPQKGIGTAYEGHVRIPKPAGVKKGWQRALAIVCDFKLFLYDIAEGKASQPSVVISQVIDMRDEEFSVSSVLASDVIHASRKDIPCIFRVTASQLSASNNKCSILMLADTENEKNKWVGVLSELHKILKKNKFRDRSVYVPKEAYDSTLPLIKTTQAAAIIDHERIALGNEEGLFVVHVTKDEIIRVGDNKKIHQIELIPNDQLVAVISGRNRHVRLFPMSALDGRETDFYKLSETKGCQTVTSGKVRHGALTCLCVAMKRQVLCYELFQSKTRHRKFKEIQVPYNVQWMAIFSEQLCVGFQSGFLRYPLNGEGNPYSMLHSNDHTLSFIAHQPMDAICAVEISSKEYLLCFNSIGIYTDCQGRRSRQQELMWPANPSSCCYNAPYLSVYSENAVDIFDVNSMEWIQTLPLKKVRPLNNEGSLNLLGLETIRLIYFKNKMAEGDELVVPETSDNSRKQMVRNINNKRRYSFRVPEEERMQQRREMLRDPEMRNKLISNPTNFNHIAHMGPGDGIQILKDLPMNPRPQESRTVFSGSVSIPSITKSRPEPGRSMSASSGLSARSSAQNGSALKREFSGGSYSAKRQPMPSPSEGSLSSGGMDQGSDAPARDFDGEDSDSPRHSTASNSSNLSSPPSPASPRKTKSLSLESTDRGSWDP
UniProt O75956: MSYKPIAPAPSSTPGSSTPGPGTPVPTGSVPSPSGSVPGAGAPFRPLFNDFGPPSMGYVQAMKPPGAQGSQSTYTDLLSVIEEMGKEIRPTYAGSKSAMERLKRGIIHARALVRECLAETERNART
UniProt O43822: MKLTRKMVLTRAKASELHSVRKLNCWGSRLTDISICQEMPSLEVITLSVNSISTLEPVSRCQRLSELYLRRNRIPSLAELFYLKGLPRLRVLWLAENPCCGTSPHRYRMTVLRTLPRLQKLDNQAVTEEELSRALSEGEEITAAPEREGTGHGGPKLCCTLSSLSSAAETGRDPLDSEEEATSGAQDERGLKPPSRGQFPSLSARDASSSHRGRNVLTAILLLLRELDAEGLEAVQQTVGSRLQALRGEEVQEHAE
UniProt Q9H3Q1: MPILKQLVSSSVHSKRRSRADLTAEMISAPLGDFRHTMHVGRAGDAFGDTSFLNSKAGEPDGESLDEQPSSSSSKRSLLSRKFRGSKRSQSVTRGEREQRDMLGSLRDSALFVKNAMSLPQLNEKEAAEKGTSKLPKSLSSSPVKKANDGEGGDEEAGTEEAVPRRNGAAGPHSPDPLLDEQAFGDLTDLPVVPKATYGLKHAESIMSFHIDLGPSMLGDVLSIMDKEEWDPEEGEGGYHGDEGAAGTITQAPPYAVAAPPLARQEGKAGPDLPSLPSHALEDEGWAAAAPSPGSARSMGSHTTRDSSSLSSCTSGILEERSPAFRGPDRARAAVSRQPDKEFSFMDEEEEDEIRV
UniProt Q8TEP8: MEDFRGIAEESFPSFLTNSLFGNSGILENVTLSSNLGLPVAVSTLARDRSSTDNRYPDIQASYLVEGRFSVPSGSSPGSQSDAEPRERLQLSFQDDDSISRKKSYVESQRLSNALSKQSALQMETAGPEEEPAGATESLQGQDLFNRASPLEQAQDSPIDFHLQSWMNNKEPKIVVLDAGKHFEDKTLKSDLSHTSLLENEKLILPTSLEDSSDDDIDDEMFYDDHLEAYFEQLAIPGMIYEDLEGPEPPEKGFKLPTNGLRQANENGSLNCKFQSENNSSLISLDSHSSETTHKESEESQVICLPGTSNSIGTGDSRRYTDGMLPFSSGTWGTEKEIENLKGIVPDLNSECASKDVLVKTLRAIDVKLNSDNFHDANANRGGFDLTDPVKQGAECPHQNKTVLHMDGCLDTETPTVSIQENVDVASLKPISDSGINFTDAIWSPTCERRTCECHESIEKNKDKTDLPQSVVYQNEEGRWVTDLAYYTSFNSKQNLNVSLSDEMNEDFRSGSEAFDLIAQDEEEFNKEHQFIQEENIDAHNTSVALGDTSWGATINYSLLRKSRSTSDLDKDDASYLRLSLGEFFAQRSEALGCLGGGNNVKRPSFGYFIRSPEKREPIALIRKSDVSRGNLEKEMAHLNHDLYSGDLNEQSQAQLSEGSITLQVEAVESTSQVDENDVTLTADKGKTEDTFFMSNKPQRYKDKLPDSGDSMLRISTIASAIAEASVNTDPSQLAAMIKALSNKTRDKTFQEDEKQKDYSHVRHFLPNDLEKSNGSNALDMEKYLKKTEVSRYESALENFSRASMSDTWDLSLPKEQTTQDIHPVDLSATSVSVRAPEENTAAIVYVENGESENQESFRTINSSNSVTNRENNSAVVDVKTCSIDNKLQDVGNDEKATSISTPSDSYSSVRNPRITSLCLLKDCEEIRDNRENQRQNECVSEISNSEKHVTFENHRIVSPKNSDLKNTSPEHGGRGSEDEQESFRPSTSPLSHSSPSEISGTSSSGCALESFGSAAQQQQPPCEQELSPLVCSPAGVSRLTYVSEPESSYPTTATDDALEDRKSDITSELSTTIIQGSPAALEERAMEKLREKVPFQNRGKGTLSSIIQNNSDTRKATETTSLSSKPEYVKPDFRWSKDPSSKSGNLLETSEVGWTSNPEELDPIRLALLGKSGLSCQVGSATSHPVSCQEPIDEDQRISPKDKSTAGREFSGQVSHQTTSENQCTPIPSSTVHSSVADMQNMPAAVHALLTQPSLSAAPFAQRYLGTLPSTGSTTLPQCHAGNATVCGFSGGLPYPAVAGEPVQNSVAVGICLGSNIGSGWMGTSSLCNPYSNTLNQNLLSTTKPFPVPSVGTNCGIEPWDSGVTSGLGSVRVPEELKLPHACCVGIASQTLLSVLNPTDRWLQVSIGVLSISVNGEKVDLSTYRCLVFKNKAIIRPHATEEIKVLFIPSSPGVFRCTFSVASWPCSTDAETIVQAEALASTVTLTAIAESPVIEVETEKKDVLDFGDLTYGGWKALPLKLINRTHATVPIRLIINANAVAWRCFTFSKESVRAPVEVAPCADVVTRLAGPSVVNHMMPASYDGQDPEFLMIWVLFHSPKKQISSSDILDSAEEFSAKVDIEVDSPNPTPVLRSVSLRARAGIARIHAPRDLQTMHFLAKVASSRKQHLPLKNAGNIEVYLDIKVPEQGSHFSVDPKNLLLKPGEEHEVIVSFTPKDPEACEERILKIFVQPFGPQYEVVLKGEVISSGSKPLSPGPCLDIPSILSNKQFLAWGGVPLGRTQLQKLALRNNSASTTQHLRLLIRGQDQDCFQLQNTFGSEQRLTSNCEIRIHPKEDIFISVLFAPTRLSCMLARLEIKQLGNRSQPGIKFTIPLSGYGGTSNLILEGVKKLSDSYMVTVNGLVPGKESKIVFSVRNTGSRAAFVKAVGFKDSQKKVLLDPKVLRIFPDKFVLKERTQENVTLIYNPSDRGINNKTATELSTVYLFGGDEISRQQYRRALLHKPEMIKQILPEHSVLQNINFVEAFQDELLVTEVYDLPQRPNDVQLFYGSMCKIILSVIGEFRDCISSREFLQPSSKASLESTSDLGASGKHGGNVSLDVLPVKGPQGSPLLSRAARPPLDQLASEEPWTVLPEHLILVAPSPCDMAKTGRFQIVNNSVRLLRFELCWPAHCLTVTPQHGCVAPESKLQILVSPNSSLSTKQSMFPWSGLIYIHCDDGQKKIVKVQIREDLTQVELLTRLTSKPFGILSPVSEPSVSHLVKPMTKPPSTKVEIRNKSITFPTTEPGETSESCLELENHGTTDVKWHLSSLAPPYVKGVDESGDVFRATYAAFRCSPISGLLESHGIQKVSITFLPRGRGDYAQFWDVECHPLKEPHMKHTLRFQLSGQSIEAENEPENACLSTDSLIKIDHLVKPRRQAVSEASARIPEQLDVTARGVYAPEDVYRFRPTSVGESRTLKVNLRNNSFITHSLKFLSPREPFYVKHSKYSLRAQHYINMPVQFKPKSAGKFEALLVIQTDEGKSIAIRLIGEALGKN
UniProt Q8N960: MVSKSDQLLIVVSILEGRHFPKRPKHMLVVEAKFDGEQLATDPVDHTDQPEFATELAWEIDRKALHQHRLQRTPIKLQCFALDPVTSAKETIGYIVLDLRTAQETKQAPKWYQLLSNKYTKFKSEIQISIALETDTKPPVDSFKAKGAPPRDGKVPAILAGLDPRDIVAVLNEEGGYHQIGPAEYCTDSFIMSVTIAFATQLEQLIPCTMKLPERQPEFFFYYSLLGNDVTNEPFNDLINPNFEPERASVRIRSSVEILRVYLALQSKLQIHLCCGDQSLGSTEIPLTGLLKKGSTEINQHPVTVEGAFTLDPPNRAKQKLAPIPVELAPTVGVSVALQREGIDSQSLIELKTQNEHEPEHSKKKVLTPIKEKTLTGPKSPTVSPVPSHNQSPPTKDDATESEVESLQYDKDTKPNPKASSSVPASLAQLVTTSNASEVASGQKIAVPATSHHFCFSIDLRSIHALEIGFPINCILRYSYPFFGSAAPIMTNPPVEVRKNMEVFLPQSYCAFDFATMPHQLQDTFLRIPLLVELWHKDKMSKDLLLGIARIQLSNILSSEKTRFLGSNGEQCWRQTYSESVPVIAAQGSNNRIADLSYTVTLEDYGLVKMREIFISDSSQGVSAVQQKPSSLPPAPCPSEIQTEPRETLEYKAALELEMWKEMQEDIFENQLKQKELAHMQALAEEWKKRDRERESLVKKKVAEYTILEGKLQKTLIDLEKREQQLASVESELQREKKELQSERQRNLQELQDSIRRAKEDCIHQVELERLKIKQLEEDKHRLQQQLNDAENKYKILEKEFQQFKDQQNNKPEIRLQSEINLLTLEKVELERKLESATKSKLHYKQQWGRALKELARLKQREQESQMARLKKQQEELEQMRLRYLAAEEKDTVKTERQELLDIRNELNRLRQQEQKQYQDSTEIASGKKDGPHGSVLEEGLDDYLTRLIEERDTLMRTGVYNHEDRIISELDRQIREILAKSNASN
UniProt O95319: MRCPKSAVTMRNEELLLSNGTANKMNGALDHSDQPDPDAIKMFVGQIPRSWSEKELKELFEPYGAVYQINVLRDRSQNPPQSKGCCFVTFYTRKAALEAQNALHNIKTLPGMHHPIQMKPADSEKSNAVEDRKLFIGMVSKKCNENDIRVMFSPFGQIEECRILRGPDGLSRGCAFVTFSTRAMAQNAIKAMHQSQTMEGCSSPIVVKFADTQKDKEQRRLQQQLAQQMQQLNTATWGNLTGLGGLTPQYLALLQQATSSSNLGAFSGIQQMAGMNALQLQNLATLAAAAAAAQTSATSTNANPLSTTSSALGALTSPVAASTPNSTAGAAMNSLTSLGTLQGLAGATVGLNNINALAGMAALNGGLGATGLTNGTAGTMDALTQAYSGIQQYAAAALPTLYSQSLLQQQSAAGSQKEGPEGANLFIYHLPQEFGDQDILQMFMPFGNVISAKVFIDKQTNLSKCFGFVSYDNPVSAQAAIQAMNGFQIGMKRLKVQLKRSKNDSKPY

log2 fold change, inactive:
CDC40 (UniProt O60508) 0.015, CEP41 (UniProt Q9BYV8) 0.016, CDK8 (UniProt P49336) 0.068, CDC42BPA isoform 6 (UniProt Q5VT25) -0.012, CDK2AP2 (UniProt O75956) -0.015, CFAP410 (UniProt O43822) 0, CDK4 (UniProt P11802) 0, CDKN1C (UniProt P49918) 0.065, CDCA8 (UniProt Q53HL2) -0.12, CENPJ (UniProt Q9HC77) -0.046, CDC42EP4 (UniProt Q9H3Q1) -0.109, CEP85 isoform 2 (UniProt Q6P2H3) 0.002, CEP192 (UniProt Q8TEP8) -0.036, CDR2L (UniProt Q86X02) -0.082, CDR2 (UniProt Q01850) 0.045, CDSN (UniProt Q15517) 0.567, CDYL (UniProt Q9Y232) -0.001, CDK5 (UniProt Q00535) -0.023, CEP120 (UniProt Q8N960) 0.004, CELF2 isoform 3 (UniProt O95319) -0.024, CFL1 (UniProt P23528) -0.004, CEBPB (UniProt P17676) -0.033

log2 fold change, active:
CDC7 (UniProt O00311) -0.324

— the supplement of paper PMC10849652
